# Laboratory results taken from US7314959B2, “Amino thiol compounds and compositions for use in conjunction with cancer therapy” (Wisconsin Alumni Research Foundation, priority 2003, dated 2008).
# For at least one compound, name, drawing or mass did not settle the structure.
# Test system: Cytoxan-induced alopecia in rat pups
# Assay: Cytoxan-induced alopecia in rat pups
# Type: in vivo
# Details: neonate rats; three days topical resveratrol and/or topical PrC-210
# Procedure: Induction of alopecia by cytoxan (CTX). Lactating Sprague Dawley mother rats with rat pups were purchased from Harlan Sprague Dawley (Indianapolis, Ind.). The mother rats were given food and water ad libitum. The rats pups were tested in the model of chemotherapy-induced alopecia described by Hussein A. M. et al., Science: 249, 1564 (1990). Cytoxan (CTX), a chemotherapeutic widely used in the treatment of cancer, was used to induce alopecia in the rats. A common side effect of cytoxan treatment in patients is alopecia. Lyophilized vials of Cytoxan were obtained from Mead-Johnson. […]
# In the earliest studies with chemoprotective polyamines, hair loss was evaluated using a modified alopecia-scoring index described by Chen G. et al., Int. […] In the later studies with aminothiols a simpler scoring scale was adopted in which coat density was scored on a 0-100 scale as “% of normal coat density.”
# Method: To assess the ability of topical treatments to prevent Cytoxan-induced alopecia we used a published protocol (Hussein et al., Science. 249(4976):1564-6, 1990) in which 11 day old neonate rat pups (Sprague-Dawley) receive a total of 6 topical skin treatments of active agent(s) during the 5 hr before and 2 hr after a single ip dose of Cytoxan (32 ug/gm b.w.). […] The density of the rat coats in the topical treatment area was scored on day 18 of life for animals injected with Cytoxan.
smiles,measurement,value
"Oc1ccc(/C=C/c2cc(O)cc(O)c2)cc1 [Resveratrol, trihydroxy-trans-stilbene, reference compound]",effect in preventing Cytoxan-induced alopecia,no discernible effect
